Results from cells or extracts need not show a direct contact. No signal at the amounts used counts as a negative. At least one verdict was read from the data and is not stated in words by the source. For some assays here: Protein sequences can lack the tags named with them. For some assays here: Construct, isoform or probe ends are uncertain for at least one entry.
Key:
Test in all cases: TransAM ELISA
[1] = biological target: RelA (p65) (mouse (primary MEFs, wild-type and p100-/-)) (UniProt Q04207); conditions: close to background, TransAM Flexi NF-kB kit (Active Motif), 5 ug MEF nuclear extract, OD450 minus unrelated oligo, pH and temperature not stated, protein in an extract, label: 5' biotin on upper strand
[2] = biological target: T1, RelB (mouse (primary MEFs, wild-type and p100-/-)) (UniProt Q04863); conditions: TransAM Flexi NF-kB kit (Active Motif), 5 ug MEF nuclear extract, OD450 minus unrelated oligo, pH and temperature not stated, protein in an extract, label: 5' biotin on upper strand
T1 sequence (looked up, limits assumed): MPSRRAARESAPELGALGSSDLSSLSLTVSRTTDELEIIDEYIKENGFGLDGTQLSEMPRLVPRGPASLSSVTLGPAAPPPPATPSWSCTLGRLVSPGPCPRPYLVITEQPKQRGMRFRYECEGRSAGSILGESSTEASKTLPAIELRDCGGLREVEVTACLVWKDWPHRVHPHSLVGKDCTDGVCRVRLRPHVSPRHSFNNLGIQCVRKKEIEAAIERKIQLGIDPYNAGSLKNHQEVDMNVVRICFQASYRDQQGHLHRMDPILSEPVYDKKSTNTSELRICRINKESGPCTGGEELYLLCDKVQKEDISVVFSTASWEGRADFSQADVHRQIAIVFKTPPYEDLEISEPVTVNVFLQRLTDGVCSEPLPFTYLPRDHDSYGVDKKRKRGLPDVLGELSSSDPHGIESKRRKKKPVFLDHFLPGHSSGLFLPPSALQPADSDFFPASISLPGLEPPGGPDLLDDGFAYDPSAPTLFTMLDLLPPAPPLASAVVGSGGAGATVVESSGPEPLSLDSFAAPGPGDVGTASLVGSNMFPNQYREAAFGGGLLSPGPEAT

Amino acid sequences for entries named in this document (tags omitted).
UniProt Q04207, whole entry: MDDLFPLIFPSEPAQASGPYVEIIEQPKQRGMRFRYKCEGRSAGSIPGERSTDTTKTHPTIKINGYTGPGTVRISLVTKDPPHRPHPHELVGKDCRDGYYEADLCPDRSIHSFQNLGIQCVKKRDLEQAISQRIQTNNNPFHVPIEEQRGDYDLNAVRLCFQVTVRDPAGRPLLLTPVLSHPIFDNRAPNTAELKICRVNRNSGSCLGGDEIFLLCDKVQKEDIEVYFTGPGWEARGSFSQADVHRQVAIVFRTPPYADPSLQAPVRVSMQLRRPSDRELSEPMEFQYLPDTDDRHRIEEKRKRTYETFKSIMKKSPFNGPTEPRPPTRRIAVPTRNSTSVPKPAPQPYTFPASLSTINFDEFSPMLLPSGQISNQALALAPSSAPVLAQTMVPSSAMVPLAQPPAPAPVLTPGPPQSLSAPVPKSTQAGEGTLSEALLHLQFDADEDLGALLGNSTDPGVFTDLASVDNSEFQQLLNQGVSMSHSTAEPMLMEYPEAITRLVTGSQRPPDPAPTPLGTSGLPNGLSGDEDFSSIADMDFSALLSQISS

[3] = biological target: T2, p50 (NF-kB1) (mouse (primary MEFs, wild-type and p100-/-)) (UniProt P25799); conditions: close to background, TransAM Flexi NF-kB kit (Active Motif), 5 ug MEF nuclear extract, OD450 minus unrelated oligo, pH and temperature not stated, protein in an extract, label: 5' biotin on upper strand
T2 sequence (looked up, limits assumed): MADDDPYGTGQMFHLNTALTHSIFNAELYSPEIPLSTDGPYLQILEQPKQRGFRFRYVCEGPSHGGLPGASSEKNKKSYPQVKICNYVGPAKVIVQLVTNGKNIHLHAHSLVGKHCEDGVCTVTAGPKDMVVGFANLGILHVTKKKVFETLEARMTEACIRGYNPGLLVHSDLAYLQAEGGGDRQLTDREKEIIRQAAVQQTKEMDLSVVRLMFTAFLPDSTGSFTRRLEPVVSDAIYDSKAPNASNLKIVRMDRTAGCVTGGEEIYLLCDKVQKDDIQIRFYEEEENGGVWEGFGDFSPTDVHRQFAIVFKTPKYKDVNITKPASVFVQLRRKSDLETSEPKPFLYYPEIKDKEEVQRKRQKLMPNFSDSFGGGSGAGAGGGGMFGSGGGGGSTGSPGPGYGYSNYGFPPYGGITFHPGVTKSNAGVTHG

[4] = biological target: T3, p52 (NF-kB2) (mouse (primary MEFs, wild-type and p100-/-)) (UniProt Q9WTK5); conditions: TransAM Flexi NF-kB kit (Active Motif), 5 ug MEF nuclear extract, OD450 minus unrelated oligo, pH and temperature not stated, protein in an extract, label: 5' biotin on upper strand
T3 sequence (looked up, limits assumed): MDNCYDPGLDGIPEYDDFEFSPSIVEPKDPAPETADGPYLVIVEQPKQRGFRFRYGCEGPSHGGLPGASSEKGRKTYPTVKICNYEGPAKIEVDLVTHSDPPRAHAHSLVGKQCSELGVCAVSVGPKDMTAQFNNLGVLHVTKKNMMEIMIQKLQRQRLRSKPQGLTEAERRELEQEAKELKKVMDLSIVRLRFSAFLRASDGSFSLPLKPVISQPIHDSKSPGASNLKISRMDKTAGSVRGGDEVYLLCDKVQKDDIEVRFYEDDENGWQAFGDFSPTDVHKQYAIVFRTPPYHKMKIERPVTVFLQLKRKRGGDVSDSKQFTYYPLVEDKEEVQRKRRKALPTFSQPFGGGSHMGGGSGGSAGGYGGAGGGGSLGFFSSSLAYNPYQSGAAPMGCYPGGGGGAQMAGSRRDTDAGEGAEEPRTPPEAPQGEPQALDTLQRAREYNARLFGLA

[5] = p100-/- extract, increased over wild-type, further with TNF

| Sequence | binding result ([1]; wild-type and p100-/- extract) | binding result [2, 5] | binding result ([3]; wild-type and p100-/- extract) | binding result [4, 5] | binding result [1] | binding result ([2]; close to background) | binding result [3] | binding result ([4]; close to background) |
| --- | --- | --- | --- | --- | --- | --- | --- | --- |
| AATGTTATCTCTCGTGTGAGTTGCAATTTTGGAAGCTCCCATTGTGTGAA (double strand) [ATX3.2] | no binding | binds | no binding | binds |  |  |  |  |
| AGTAGCTGACAATGTATTTATATAGATACAGGGTCATTCCAACTGCCAGA (double strand) [ATX3.1] | no binding | binds | no binding | binds |  |  |  |  |
| CTTCCAAGGAGAGCCTAGGTTTTCTTAGAGATGGGTTTCTATGTCAGAGA (double strand) [ATXunr1] |  |  |  |  | no binding | no binding | no binding | no binding |
| GTGCTATCGGGTTTTATGCGAGCAGAGCCACGGGGGCTTCCTTTAAGCAG (double strand) [ATX4] | no binding | binds | no binding | binds |  |  |  |  |
| TGTTTTACAGTTGATTCGATGCCAAGATAAGGCTATCCTCCTGACTGCCT (double strand) [ATXunr2] |  |  |  |  | no binding | no binding | no binding | no binding |
